Results deposited as PubChem BioAssay AID652259 (Drosophila RNAi Screening Center, 2013).

Test: 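Knock-downs that push a Wingless-driven reporter up or down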 (primary screen)
Cells: Drosophila clone 8 imaginal disc epithelial cells
Reagent: long dsRNA against Drosophila genes
Challenge: pathway stimulated by co-transfected Wingless expression plasmid
Read-out: 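Dual luciferase reads per well after Wingless plasmid stimulation: reporter firefly light and Renilla control light; activity is firefly divided by Renilla, a ratio not deposited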
Direction: firefly reporter light: higher = more Wg reporter light, before normalisation; Renilla control light: higher = more transfected or surviving cells
Active means: 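a knock-down is a candidate when at least two out of four statistical tests show it departing from its plate mean; one test alone signals a weak candidate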
Meaning of the calls: active = candidate regulator (raises or lowers reporter); inactive = not a candidate
The deposit covers about 22,000 reagents; this is a random part of those that have a named target and a result. Of all reagents, 233 (1.1%) are marked active. 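Light values are raw, unnormalised plate reads; the ratio scores behind the reporter calls were not deposited.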 Reagents against one gene are numbered here. A plus sign joins genes that one reagent is predicted to hit. Not given: the amount of reagent, the time to read-out, the dose of the treatment.

| gene | dsRNA no. | reporter change call, replicate 1 | firefly reporter light, replicate 1 | firefly reporter light, replicate 2 | Renilla control light, replicate 1 | Renilla control light, replicate 2 | Outcome |
| --- | --- | --- | --- | --- | --- | --- | --- |
| y | 1 | – | 18224 | – | 10305 | – | inactive |
| bves | 1 | – | 13805 | – | 9996 | – | inactive |
| bves | 2 | – | 19446 | – | 11562 | – | inactive |
| bves | 3 | – | 17109 | – | 10442 | – | inactive |
| GatC + PolG2 | 1 | – | 5900 | – | 2713 | – | inactive |
| cactin | 1 | – | 15156 | – | 7138 | – | inactive |
| CG6168 | 1 | – | 5627 | – | 2537 | – | inactive |
| lt | 1 | – | 2528 | 5990 | 816 | 2424 | inactive |
| CG8012 | 1 | – | 2448 | 10344 | 2048 | 4624 | inactive |
| CG12861 | 1 | – | 10587 | – | 4155 | – | inactive |
| CG12861 | 2 | – | 5.55e5 | 6.00e5 | 2.11e5 | 2.27e5 | inactive |
| CG42819 | 1 | – | 3000 | 9909 | 1131 | 3307 | inactive |
| Shaw | 1 | – | 2625 | 9313 | 1051 | 4029 | inactive |
| Shaw | 2 | – | 3725 | 9858 | 1201 | 3787 | inactive |
| Shaw | 3 | – | 3.18e5 | 3.62e5 | 1.67e5 | 1.43e5 | inactive |
| Hmgs | 1 | – | 7301 | – | 2448 | – | inactive |
| CG1773 | 1 | – | 11933 | – | 3337 | – | inactive |
| mars | 1 | – | 12920 | – | 3158 | – | inactive |
| Cp15 | 1 | – | 1244 | 8180 | 1130 | 3264 | inactive |
| CG31693 | 1 | – | 13162 | – | 6570 | – | inactive |
| comm | 1 | – | 5121 | – | 2976 | – | inactive |
| CG32713 | 1 | – | 8.76e5 | 7.78e5 | 3.92e5 | 2836 | inactive |
| CG42671 | 1 | – | 4711 | – | 752 | – | inactive |
| CG42671 | 2 | – | 8608 | – | 2726 | – | inactive |
| dmpd | 1 | – | 8112 | – | 2759 | – | inactive |
| Invadolysin | 1 | – | 13002 | – | 4421 | – | inactive |
| mRpL52 | 1 | – | 3589 | 8563 | 1088 | 3265 | inactive |
| ND-20L | 1 | – | 8886 | – | 4019 | – | inactive |
| CG11999 | 1 | – | 14736 | – | 4291 | – | inactive |
| Dhc62B | 1 | – | 5916 | – | 2946 | – | inactive |
| eEF5 | 1 | – | 3497 | 7970 | 578 | 2740 | inactive |
| sro | 1 | – | 7192 | – | 2107 | – | inactive |
| alrm | 1 | – | 12662 | – | 13056 | – | inactive |
| Vm32E | 1 | – | 2876 | 5338 | 953 | 1985 | inactive |
| CG15247 | 1 | – | 17627 | – | 9650 | – | inactive |
| IFT54 | 1 | – | 22080 | – | 5671 | – | inactive |
| Scgalpha | 1 | – | 2987 | 6363 | 928 | 3112 | inactive |
| CG31259 | 1 | – | 12202 | – | 2553 | – | inactive |
| by | 1 | – | 15056 | – | 3600 | – | inactive |
| GstE10 | 1 | – | 5625 | – | 2310 | – | inactive |
| ect | 1 | – | 9776 | – | 4070 | – | inactive |
| ect | 2 | – | 9936 | – | 1842 | – | inactive |
| ect | 3 | – | 5.29e5 | 5.87e5 | 1.61e5 | 1.86e5 | inactive |
| CG30105 | 1 | – | 20225 | – | 13602 | – | inactive |
| psq | 1 | – | 6652 | – | 699 | – | inactive |
| lmd | 1 | – | 2176 | 4885 | 1178 | 1688 | inactive |
| Atg8b | 1 | – | 14115 | – | 1353 | – | inactive |
| CG8051 | 1 | – | 10868 | – | 9756 | – | inactive |
| Alp10 | 1 | – | 2304 | 6864 | 1226 | 5616 | inactive |
| CG14915 | 1 | – | 2346 | 4432 | 1015 | 3792 | inactive |
| Fmo-2 | 1 | – | 12448 | – | 3714 | – | inactive |
| betaTub60D | 1 | – | 3536 | 10506 | 970 | 3184 | inactive |
| betaTub60D | 2 | – | 3.96e5 | 4.37e5 | 1.40e5 | 1.44e5 | inactive |
| Ilk | 1 | – | 2387 | – | 1202 | – | inactive |
| CG6770 | 1 | – | 1900 | 6418 | 961 | 2560 | inactive |

Targets listed so far whose target name starts with G or g (2):
| gene | dsRNA no. | reporter change call, replicate 1 | firefly reporter light, replicate 1 | firefly reporter light, replicate 2 | Renilla control light, replicate 1 | Renilla control light, replicate 2 | Outcome |
| --- | --- | --- | --- | --- | --- | --- | --- |
| GatC + PolG2 | 1 | – | 5900 | – | 2713 | – | inactive |
| GstE10 | 1 | – | 5625 | – | 2310 | – | inactive |

Further reagents follow.
| gene | dsRNA no. | reporter change call, replicate 1 | firefly reporter light, replicate 1 | firefly reporter light, replicate 2 | Renilla control light, replicate 1 | Renilla control light, replicate 2 | Outcome |
| --- | --- | --- | --- | --- | --- | --- | --- |
| Nnf1b | 1 | – | 7.72e5 | 7.80e5 | 3.50e5 | 3.74e5 | inactive |
| Jhbp14 | 1 | – | 3939 | 9136 | 1729 | 4032 | inactive |
| p47 | 1 | – | 15258 | – | 5587 | – | inactive |
| CG2201 | 1 | – | 6377 | – | 1652 | – | inactive |
| CG11927 | 1 | – | 8640 | – | 3654 | – | inactive |
| BEAF-32 | 1 | – | 16118 | – | 4088 | – | inactive |
| Rab4 | 1 | – | 10817 | – | 2547 | – | inactive |
| NT1 | 1 | – | 933 | 5671 | 892 | 2644 | inactive |
| NT1 | 2 | – | 6.77e5 | 6.77e5 | 3.02e5 | 2.60e5 | inactive |
| CG13110 | 1 | – | 1637 | 4969 | 969 | 2453 | inactive |
| CG42500 | 1 | – | 17376 | – | 2748 | – | inactive |
| Ccn | 1 | – | 3589 | – | 1345 | – | inactive |
| Ccn | 2 | – | 3373 | – | 962 | – | inactive |
| Ccn | 3 | – | 5805 | – | 2253 | – | inactive |
| Ccn | 4 | – | 4738 | – | 2584 | – | inactive |
| Cpr65Av | 1 | – | 1651 | 8371 | 1753 | 5008 | inactive |
| Cad96Ca | 1 | – | 15861 | – | 11221 | – | inactive |
| Cad96Ca | 2 | – | 17549 | – | 14448 | – | inactive |
| CG11619 | 1 | – | 12064 | – | 2861 | – | inactive |
| Npc2c | 1 | – | 17088 | – | 4306 | – | inactive |
| CG1246 | 1 | Wg reporter activity raised | 5581 | – | 2556 | – | inactive |
| SsRbeta | 1 | – | 3168 | – | 1440 | – | inactive |
| meep | 1 | – | 2572 | – | 1744 | – | inactive |
| Cpr31A | 1 | – | 2500 | 4640 | 1121 | 3261 | inactive |
| AMPdeam | 1 | – | 539 | – | 322 | – | inactive |
| AMPdeam | 2 | – | 1449 | 6107 | 599 | 2119 | inactive |
| AMPdeam | 3 | – | 23623 | – | 11651 | – | inactive |
| AMPdeam | 4 | – | 25460 | – | 13363 | – | inactive |
| Set1 | 1 | – | 25237 | – | 7379 | – | inactive |
| Set1 | 2 | – | 28240 | – | 8273 | – | inactive |
| CG15025 | 1 | – | 14042 | – | 2896 | – | inactive |
| CG14113 | 1 | – | 7813 | – | 3280 | – | inactive |
| rost | 1 | – | 11088 | – | 3772 | – | inactive |
| CG34338 | 1 | – | 3317 | – | 1220 | – | inactive |
| CG10555 | 1 | – | 30245 | – | 8056 | – | inactive |
| CG13042 | 1 | – | 10362 | – | 3768 | – | inactive |
| Rnf11 | 1 | – | 7.03e5 | 8.08e5 | 3.44e5 | 2.90e5 | inactive |
| CG14273 | 1 | – | 3322 | 7899 | 1116 | 4464 | inactive |
